Experimental data published in PMC8213057, “Targeting ALK2: An Open Science Approach to Developing Therapeutics for the Treatment of Diffuse Intrinsic Pontine Glioma” (Journal of Medicinal Chemistry, 2020).

Amino acid sequences for entries named in this document (tags omitted). A change or cut given only in a name is not applied to a line headed by its entry. Residues count along the entry.
UniProt Q9UQB9: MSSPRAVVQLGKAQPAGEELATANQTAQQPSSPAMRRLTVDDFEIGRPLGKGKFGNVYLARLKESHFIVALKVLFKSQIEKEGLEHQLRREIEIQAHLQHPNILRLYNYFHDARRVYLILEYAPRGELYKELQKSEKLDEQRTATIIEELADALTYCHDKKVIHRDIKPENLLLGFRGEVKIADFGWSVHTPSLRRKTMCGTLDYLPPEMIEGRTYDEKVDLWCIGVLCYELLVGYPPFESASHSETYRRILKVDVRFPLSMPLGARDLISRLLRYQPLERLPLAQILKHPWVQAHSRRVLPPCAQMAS
UniProt P78368: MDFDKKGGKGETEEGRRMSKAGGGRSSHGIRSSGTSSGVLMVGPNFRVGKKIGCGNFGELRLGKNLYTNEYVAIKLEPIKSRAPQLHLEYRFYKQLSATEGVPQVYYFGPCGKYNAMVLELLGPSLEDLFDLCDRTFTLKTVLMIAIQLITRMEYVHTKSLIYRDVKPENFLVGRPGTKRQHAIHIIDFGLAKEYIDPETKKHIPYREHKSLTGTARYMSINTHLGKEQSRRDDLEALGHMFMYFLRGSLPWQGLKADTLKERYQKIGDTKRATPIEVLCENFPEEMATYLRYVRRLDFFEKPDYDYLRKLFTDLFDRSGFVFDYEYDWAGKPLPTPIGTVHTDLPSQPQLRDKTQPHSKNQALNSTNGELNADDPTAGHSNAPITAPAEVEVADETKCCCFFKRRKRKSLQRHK
UniProt P06239: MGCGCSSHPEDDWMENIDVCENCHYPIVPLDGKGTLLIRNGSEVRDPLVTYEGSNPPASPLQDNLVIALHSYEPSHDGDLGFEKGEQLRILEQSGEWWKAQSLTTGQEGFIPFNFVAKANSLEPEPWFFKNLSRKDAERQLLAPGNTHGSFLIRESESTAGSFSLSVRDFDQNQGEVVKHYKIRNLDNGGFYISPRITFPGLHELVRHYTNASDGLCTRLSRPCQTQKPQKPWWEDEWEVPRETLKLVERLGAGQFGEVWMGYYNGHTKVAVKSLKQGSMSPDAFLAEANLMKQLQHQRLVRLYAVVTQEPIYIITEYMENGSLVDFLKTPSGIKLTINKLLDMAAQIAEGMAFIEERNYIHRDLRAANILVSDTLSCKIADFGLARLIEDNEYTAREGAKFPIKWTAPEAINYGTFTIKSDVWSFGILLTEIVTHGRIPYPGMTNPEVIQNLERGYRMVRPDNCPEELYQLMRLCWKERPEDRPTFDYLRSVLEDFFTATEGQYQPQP
UniProt P16234, 24-1089: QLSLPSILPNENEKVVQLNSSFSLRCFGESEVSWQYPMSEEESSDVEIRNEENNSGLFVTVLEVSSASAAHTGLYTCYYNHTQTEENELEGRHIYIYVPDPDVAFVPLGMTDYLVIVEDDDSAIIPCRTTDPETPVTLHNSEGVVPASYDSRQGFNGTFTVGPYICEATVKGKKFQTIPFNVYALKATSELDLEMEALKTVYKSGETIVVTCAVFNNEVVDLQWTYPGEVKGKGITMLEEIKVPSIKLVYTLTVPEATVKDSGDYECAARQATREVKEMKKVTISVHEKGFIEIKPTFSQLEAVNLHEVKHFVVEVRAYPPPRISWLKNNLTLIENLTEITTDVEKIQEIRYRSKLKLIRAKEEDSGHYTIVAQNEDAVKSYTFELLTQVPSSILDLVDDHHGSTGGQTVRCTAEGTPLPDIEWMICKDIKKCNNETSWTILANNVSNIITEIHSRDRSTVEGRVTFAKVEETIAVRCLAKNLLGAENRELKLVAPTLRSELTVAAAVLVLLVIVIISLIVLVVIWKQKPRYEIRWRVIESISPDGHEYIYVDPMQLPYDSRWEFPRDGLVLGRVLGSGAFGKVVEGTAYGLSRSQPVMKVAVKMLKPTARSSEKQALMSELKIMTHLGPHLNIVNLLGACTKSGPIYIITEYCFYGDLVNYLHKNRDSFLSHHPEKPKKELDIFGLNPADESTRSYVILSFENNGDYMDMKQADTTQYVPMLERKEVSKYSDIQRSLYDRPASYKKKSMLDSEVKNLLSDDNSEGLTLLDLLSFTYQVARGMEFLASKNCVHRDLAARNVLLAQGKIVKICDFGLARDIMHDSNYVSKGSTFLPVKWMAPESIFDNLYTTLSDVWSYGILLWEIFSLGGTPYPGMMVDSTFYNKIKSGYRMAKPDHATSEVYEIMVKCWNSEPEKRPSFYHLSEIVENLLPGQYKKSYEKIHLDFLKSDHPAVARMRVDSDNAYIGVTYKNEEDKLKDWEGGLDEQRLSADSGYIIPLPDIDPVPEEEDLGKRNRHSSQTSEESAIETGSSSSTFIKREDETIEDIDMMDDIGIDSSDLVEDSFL
UniProt P05771, whole entry: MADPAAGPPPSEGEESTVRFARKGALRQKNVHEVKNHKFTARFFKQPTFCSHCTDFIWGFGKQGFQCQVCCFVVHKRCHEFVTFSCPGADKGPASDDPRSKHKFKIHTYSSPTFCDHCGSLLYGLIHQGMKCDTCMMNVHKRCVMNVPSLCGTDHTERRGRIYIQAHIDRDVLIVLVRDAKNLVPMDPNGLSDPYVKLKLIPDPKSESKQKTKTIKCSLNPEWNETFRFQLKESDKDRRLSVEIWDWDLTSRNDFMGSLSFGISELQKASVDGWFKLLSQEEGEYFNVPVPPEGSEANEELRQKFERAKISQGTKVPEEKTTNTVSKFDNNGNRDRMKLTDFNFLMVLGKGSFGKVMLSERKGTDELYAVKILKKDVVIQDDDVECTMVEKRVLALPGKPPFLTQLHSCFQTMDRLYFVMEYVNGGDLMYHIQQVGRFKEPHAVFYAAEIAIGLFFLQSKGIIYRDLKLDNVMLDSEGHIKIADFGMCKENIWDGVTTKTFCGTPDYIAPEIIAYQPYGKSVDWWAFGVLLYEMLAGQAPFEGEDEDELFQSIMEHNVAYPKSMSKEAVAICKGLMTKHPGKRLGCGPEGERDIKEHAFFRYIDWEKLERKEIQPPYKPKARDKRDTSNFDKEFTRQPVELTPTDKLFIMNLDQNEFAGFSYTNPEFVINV
UniProt P51817: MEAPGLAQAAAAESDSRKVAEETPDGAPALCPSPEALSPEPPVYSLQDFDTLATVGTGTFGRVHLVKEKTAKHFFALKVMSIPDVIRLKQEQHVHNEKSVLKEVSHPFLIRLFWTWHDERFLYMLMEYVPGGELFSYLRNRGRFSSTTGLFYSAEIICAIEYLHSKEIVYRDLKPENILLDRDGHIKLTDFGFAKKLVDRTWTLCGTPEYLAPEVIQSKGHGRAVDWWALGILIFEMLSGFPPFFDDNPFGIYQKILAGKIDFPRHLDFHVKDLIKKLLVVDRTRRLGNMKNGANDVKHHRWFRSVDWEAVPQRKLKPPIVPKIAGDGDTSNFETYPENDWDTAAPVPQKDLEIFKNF
UniProt P10721, 26-976: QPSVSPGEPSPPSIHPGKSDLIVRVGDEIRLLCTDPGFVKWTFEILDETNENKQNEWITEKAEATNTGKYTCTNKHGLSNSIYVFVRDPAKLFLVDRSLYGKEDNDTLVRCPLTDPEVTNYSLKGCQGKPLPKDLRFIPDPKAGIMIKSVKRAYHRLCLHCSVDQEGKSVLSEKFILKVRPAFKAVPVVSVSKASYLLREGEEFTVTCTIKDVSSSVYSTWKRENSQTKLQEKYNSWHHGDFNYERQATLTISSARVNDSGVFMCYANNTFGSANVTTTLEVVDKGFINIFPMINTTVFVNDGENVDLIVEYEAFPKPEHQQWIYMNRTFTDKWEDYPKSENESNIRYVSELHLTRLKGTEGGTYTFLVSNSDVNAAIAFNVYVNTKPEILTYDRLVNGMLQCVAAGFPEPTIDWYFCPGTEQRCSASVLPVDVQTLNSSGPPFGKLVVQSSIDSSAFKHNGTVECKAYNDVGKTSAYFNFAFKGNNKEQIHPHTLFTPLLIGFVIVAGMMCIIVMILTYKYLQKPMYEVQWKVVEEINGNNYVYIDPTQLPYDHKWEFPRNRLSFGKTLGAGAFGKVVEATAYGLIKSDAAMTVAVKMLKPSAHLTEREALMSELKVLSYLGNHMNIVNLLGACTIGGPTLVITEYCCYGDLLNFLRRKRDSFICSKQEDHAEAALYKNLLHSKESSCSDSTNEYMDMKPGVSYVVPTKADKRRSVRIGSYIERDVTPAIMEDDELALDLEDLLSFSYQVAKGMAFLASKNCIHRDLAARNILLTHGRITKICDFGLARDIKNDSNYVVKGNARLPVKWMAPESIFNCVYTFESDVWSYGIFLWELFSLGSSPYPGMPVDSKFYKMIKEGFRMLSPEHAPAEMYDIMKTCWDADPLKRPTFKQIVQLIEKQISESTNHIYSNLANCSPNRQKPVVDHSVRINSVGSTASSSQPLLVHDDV
UniProt Q00535, whole entry: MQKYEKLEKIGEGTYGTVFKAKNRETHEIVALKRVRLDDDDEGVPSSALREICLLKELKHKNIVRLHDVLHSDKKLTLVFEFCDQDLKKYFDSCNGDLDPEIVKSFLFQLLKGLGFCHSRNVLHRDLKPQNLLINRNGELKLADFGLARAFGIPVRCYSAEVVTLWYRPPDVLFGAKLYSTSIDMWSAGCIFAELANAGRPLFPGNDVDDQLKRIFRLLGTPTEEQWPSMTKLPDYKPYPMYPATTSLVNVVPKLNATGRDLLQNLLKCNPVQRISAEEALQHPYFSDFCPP
UniProt P28482, whole entry: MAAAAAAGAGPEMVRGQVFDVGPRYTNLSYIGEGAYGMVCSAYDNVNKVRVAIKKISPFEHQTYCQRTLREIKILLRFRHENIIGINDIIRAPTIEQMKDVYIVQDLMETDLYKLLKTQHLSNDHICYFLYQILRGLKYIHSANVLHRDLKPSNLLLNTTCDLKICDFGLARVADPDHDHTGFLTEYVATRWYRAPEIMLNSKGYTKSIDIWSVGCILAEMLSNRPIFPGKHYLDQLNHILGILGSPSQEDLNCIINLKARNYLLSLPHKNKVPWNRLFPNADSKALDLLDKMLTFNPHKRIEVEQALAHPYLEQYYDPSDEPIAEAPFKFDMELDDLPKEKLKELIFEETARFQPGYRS
UniProt Q9HC98: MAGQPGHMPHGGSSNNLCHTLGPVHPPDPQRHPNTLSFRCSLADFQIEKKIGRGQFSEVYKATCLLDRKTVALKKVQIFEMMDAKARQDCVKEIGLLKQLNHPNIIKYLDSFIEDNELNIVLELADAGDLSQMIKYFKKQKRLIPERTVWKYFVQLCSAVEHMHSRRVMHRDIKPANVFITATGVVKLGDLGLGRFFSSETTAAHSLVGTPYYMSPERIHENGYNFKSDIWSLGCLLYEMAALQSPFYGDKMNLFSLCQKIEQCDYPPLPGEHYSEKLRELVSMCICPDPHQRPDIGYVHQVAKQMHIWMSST
UniProt Q6IQ55, whole entry: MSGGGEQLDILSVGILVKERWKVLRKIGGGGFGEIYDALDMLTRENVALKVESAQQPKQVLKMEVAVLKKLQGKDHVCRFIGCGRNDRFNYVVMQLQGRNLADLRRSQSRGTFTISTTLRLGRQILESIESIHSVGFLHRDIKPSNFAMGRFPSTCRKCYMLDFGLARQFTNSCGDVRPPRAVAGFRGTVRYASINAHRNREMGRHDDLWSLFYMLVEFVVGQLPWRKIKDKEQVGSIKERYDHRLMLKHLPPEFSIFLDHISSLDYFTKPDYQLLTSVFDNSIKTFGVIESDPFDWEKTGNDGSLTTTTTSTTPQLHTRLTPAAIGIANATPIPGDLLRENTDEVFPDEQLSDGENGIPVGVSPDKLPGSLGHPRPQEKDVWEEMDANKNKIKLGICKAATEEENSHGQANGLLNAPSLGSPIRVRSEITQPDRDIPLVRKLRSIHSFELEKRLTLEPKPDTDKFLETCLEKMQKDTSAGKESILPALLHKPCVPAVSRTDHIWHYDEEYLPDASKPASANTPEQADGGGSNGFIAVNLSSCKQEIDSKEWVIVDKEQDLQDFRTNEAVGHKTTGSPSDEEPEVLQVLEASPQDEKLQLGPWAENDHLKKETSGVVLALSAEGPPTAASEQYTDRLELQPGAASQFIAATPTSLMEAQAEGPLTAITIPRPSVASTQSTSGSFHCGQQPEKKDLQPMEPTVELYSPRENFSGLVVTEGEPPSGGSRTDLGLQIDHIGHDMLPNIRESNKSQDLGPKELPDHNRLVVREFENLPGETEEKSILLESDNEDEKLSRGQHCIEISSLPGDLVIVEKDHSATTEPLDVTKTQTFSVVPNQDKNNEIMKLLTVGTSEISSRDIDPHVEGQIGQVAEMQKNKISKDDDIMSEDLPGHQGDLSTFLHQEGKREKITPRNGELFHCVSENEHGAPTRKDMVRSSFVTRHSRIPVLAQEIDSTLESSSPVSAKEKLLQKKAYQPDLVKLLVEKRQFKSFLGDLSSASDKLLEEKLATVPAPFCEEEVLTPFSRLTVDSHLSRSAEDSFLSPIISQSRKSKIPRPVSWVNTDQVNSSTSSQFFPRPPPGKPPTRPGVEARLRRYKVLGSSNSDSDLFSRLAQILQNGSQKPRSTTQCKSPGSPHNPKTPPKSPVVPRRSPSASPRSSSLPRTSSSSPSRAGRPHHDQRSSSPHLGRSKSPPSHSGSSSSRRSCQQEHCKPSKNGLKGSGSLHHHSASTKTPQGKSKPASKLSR

Key:
Aurora C = Aurora C (Homo sapiens, UniProt Q9UQB9); details: 1 μM; Run 1, Run 2
CK1g2 = CK1g2 (Homo sapiens, UniProt P78368); details: 1 μM; Run 1, Run 2
CTK/MATK = CTK/MATK (Homo sapiens, UniProt P42679); details: 1 μM; Run 1, Run 2
DAPK2 = DAPK2 (Homo sapiens, UniProt Q9UIK4); details: 1 μM; Run 1, Run 2
FGFR1 = FGFR1 (Homo sapiens, UniProt P11362); details: 1 μM; Run 1, Run 2
FLT1/VEGFR1 = FLT1/VEGFR1 (Homo sapiens, UniProt P17948); details: 1 μM; Run 1, Run 2
IKKa/CHUK = IKKa/CHUK (Homo sapiens, UniProt O15111); details: 1 μM; Run 1, Run 2
JNK1 = JNK1 (Homo sapiens, UniProt P45983); details: 1 μM; Run 1, Run 2
LCK = LCK (Homo sapiens, UniProt P06239); details: 1 μM; Run 1, Run 2
MRCKb/CDC42BPB = MRCKb/CDC42BPB (Homo sapiens, UniProt Q9Y5S2); details: 1 μM; Run 1, Run 2
PDGFRa = PDGFRa (Homo sapiens, UniProt P16234); details: 1 μM; Run 1, Run 2
PKCb1 = PKCb1 (Homo sapiens, UniProt P05771); details: 1 μM; Run 1, Run 2
PKG1b = PKG1b (Homo sapiens, UniProt Q13976); details: 1 μM; Run 1, Run 2
PKMYT1 = PKMYT1 (Homo sapiens, UniProt Q99640); details: 1 μM; Run 1, Run 2
PLK4/SAK = PLK4/SAK (Homo sapiens, UniProt O00444); details: 1 μM; Run 1, Run 2
PRKX = PRKX (Homo sapiens, UniProt P51817); details: 1 μM; Run 1, Run 2
ROS/ROS1 = ROS/ROS1 (Homo sapiens, UniProt P08922); details: 1 μM; Run 1, Run 2
RSK1 = RSK1 (Homo sapiens, UniProt Q15418); details: 1 μM; Run 1, Run 2
TSSK2 = TSSK2 (Homo sapiens, UniProt Q96PF2); details: 1 μM; Run 1, Run 2
c-Kit = c-Kit (Homo sapiens, UniProt P10721); test: biochemical; details: read-out: % enzyme activity, 1 μM; Run 1, Run 2
CDK5/p35 = CDK5/p35 (Homo sapiens, UniProt Q00535); test: biochemical; details: read-out: % enzyme activity, 1 μM; Run 1, Run 2
DDR2 = DDR2 (Homo sapiens, UniProt Q16832); test: biochemical; details: read-out: % enzyme activity, 1 μM; Run 1, Run 2
EPHA1 = EPHA1 (Homo sapiens, UniProt P21709); test: biochemical; details: read-out: % enzyme activity, 1 μM; Run 1, Run 2
EPHA3 = EPHA3 (Homo sapiens, UniProt P29320); test: biochemical; details: read-out: % enzyme activity, 1 μM; Run 1, Run 2
ERK2/MAPK1 = ERK2/MAPK1 (Homo sapiens, UniProt P28482); test: biochemical; details: read-out: % enzyme activity, 1 μM; Run 1, Run 2
ERN2/IRE2 = ERN2/IRE2 (Homo sapiens, UniProt Q76MJ5); test: biochemical; details: read-out: % enzyme activity, 1 μM; Run 1, Run 2
FGFR3 = FGFR3 (Homo sapiens, UniProt P22607); test: biochemical; details: read-out: % enzyme activity, 1 μM; Run 1, Run 2
GRK1 = GRK1 (Homo sapiens, UniProt Q15835); test: biochemical; details: read-out: % enzyme activity, 1 μM; Run 1, Run 2
Haspin = Haspin (Homo sapiens, UniProt Q8TF76); test: biochemical; details: read-out: % enzyme activity, 1 μM; Run 1, Run 2
KDR/VEGFR2 = KDR/VEGFR2 (Homo sapiens, UniProt P35968); test: biochemical; details: read-out: % enzyme activity, 1 μM; Run 1, Run 2
NEK6 = NEK6 (Homo sapiens, UniProt Q9HC98); test: biochemical; details: read-out: % enzyme activity, 1 μM; Run 1, Run 2
NEK8 = NEK8 (Homo sapiens, UniProt Q86SG6); test: biochemical; details: read-out: % enzyme activity, 1 μM; Run 1, Run 2
PDK1/PDPK1 = PDK1/PDPK1 (Homo sapiens, UniProt O15530); test: biochemical; details: read-out: % enzyme activity, 1 μM; Run 1, Run 2
PLK1 = PLK1 (Homo sapiens, UniProt P53350); test: biochemical; details: read-out: % enzyme activity, 1 μM; Run 1, Run 2
RET = RET (Homo sapiens, UniProt P07949); test: biochemical; details: read-out: % enzyme activity, 1 μM; Run 1, Run 2
RIPK3 = RIPK3 (Homo sapiens, UniProt Q9Y572); test: biochemical; details: read-out: % enzyme activity, 1 μM; Run 1, Run 2
RIPK4 = RIPK4 (Homo sapiens, UniProt P57078); test: biochemical; details: read-out: % enzyme activity, 1 μM; Run 1, Run 2
ROCK1 = ROCK1 (Homo sapiens, UniProt Q13464); test: biochemical; details: read-out: % enzyme activity, 1 μM; Run 1, Run 2
ROCK2 = ROCK2 (Homo sapiens, UniProt O75116); test: biochemical; details: read-out: % enzyme activity, 1 μM; Run 1, Run 2
SBK1 = SBK1 (Homo sapiens, UniProt Q52WX2); test: biochemical; details: read-out: % enzyme activity, 1 μM; Run 1, Run 2
STK33 = STK33 (Homo sapiens, UniProt Q9BYT3); test: biochemical; details: read-out: % enzyme activity, 1 μM; Run 1, Run 2
TESK1 = TESK1 (Homo sapiens, UniProt Q15569); test: biochemical; details: read-out: % enzyme activity, 1 μM; Run 1, Run 2
TTBK2 = TTBK2 (Homo sapiens, UniProt Q6IQ55); test: biochemical; details: read-out: % enzyme activity, 1 μM; Run 1, Run 2

Q: With `COc1cc(-c2cncc(-c3ccc(N4CCN(C(C)C)CC4)cc3)c2C)cc(F)c1C(N)=O` [Compound 26b, 2-Fluoro-4-(5-(4-(4-isopropylpiperazin-1-yl)phenyl)-4-methylpyridin-3-yl)-6-methoxybenzamide] as the compound, how does the “% enzyme activity” value (Aurora C) read?
A: Its value is 98.40%.

Q: And the “% enzyme activity” value (CK1g2)?
A: The value was 70.17%.

Q: What about the “% enzyme activity” value (CTK/MATK) of the same compound?
A: The value was 94.38%.

Q: What about the “% enzyme activity” value (DAPK2) of the same compound?
A: The value was 103.70%.

Q: What about the “% enzyme activity” value (FGFR1) of the same compound?
A: Its value is 101.63%.

Q: And the “% enzyme activity” value (FLT1/VEGFR1)?
A: Its value is 95.86%.

Q: What about the “% enzyme activity” value (IKKa/CHUK) of the same compound?
A: The value was 84.25%.

Q: And the “% enzyme activity” value (JNK1)?
A: The value was 83.52%.

Q: What about the “% enzyme activity” value (LCK) of the same compound?
A: The value was 96.67%.

Q: And the “% enzyme activity” value (MRCKb/CDC42BPB)?
A: Its value is 95.88%.

Q: What about the “% enzyme activity” value (PDGFRa) of the same compound?
A: The value was 79.03%.

Q: What about the “% enzyme activity” value (PKCb1) of the same compound?
A: Its value is 86.84%.

Q: And the “% enzyme activity” value (PKG1b)?
A: Its value is 98.95%.

Q: What about the “% enzyme activity” value (PKMYT1) of the same compound?
A: The value was 121.94%.

Q: What about the “% enzyme activity” value (PLK4/SAK) of the same compound?
A: The value was 93.89%.

Q: What about the “% enzyme activity” value (PRKX) of the same compound?
A: The value was 96.87%.

Q: What about the “% enzyme activity” value (ROS/ROS1) of the same compound?
A: The value was 95.52%.

Q: And the “% enzyme activity” value (RSK1)?
A: The value was 95.84%.

Q: And the “% enzyme activity” value (TSSK2)?
A: Its value is 102.75%.

Q: And the remaining activity at 1 µM (c-Kit)?
A: The remaining activity at 1 µM was 80.8%.

Q: What about the remaining activity at 1 µM (CDK5/p35) of the same compound?
A: The remaining activity at 1 µM was 95.6%.

Q: What about the remaining activity at 1 µM (DDR2) of the same compound?
A: Its remaining activity at 1 µM is 92.6%.

Q: And the remaining activity at 1 µM (EPHA1)?
A: The remaining activity at 1 µM was 98%.

Q: And the remaining activity at 1 µM (EPHA3)?
A: Its remaining activity at 1 µM is 101%.

Q: What about the remaining activity at 1 µM (ERK2/MAPK1) of the same compound?
A: The remaining activity at 1 µM was 89.3%.

Q: And the remaining activity at 1 µM (ERN2/IRE2)?
A: The remaining activity at 1 µM was 104%.

Q: What about the remaining activity at 1 µM (FGFR3) of the same compound?
A: Its remaining activity at 1 µM is 105%.

Q: What about the remaining activity at 1 µM (GRK1) of the same compound?
A: Its remaining activity at 1 µM is 95.4%.

Q: And the remaining activity at 1 µM (Haspin)?
A: The remaining activity at 1 µM was 84.8%.

Q: What about the remaining activity at 1 µM (KDR/VEGFR2) of the same compound?
A: Its remaining activity at 1 µM is 97.3%.

Q: And the remaining activity at 1 µM (NEK6)?
A: Its remaining activity at 1 µM is 101%.

Q: And the remaining activity at 1 µM (NEK8)?
A: Its remaining activity at 1 µM is 102%.

Q: What about the remaining activity at 1 µM (PDK1/PDPK1) of the same compound?
A: The remaining activity at 1 µM was 96.3%.

Q: What about the remaining activity at 1 µM (PLK1) of the same compound?
A: The remaining activity at 1 µM was 98.8%.

Q: What about the remaining activity at 1 µM (RET) of the same compound?
A: The remaining activity at 1 µM was 92.5%.

Q: And the remaining activity at 1 µM (RIPK3)?
A: Its remaining activity at 1 µM is 112%.

Q: And the remaining activity at 1 µM (RIPK4)?
A: The remaining activity at 1 µM was 79.7%.

Q: And the remaining activity at 1 µM (ROCK1)?
A: The remaining activity at 1 µM was 97%.

Q: And the remaining activity at 1 µM (ROCK2)?
A: Its remaining activity at 1 µM is 122%.

Q: And the remaining activity at 1 µM (SBK1)?
A: Its remaining activity at 1 µM is 96.3%.

Q: What about the remaining activity at 1 µM (STK33) of the same compound?
A: The remaining activity at 1 µM was 97.3%.

Q: And the remaining activity at 1 µM (TESK1)?
A: The remaining activity at 1 µM was 108%.

Q: And the remaining activity at 1 µM (TTBK2)?
A: Its remaining activity at 1 µM is 98%.
